Results are given in words; binding and its absence hold for the method and conditions named. In cells and extracts the contact can be indirect. Some entries that bind do so weakly or less than the wild type. Where a sequence is shown, tags or fusion partners need not be part of it.
Target: T1, TNFR-Wengen-Flag (TNFR-wgn-Flag) (Drosophila) (UniProt Q9VWS4)
T1 sequence: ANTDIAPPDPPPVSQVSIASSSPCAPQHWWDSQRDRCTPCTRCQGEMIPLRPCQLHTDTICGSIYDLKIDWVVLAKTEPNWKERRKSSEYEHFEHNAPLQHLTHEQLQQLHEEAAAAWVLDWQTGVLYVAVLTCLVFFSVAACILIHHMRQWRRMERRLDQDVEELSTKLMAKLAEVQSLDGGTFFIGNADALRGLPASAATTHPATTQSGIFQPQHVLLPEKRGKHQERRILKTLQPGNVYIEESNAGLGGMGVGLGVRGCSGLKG
Assay: co-IP

B1: FGFR-Breathless-GFP (FGFR-btl-GFP), full length (receptor, UniProt Q09147 20-1052)
chain: DLGCDYGHHRCYIDVTVENSPRQRHLLSDMDITLQCVRPMAKWFYEDKFQLRATLLRLERAQSGNSGNYGCLDSQNRWYNISLVVGHKEPVGNDIASFVKLEDAPALPESDLFFQPLNESRSLKLLQPLPKTVQRTAGGLFQLNCSPMDPDAKGVNISWLHNDTQILGGRGRIKLKRWSLTVGQLQPEDAGSYHCELCVEQDCQRSNPTQLEVISRKHTVPMLKPGYPRNTSIALGDNVSIECLLEDSALEPKITWLHKGNADNIDDLLQRLREQSQLPVDVTRLITRMDEPQVLRLGNVLMEDGGWYICIAENQVGRTVAASYVDLYSPSDTTTVRTTTTTTVASPIPTASTGEDNDDDVENPAAEASGGVGPPVFRKELKRLQHSLSGNTVNLACPVYGKANITWTKDKKPLNRELGVYVQKNWTLRFVEATSEDSGLYNCKVCNAWGCIQFDFSVQINDRTRSAPIIVVPQNQTVKVNGSLVMKCTVYSDLHPTVSWKRVVLKNASLDGLKSVEIQNLNFTVTNDSVVLTLRNVTFDQEGWYTCLASSGLGRSNSSVYLRVVSPLPPLEIYALLHAHPLGFTLAAITIVALFLLGSAFITFMLRRLRREKLLKLRIETVHQWTKKVIIYRPGGEEGSGCSSGDLQMPVIRIEKQRTTVSTTGTGGTDPAQGFNEYEFPLDSNWEIPRQQLSLGSILGEGAFGRVVMAEAEGLPRSPQLAETIVAVKMVKEEHTDTDMASLVREMEVMKMIGKHINIINLLGCCSQGGPLWVIVEYAPHGNLKDFLKQNRPGAPQRRSDSDGYLDDKPLISTQHLGEKELTKFAFQIARGMEYLASRRCIHRDLAARNVLVSDGYVMKIADFGLARDIQDTEYYRKNTNGRLPIKWMAPESLQEKKYDSQSDVWSYGVLLWEIMTYGDQPYPHILSAEELYSYLITGQRMEKPAKCSLNIYVVMRQCWHFESCARPTFAELVESFDGILQQASSNPNDAYLDLSMPMLETPPSSGDEDDGSDTETFRETSPLRYQYTYKFN
binding: binds
